Values joined by “and” are separate entries in the source; they are usually repeats but may differ in a detail not shown here. Equal entries are not always repeated. Further values from the same series stand in other lists.
Key:
Type in all cases: in vivo, Wistar Han rats
[1] = 8-day Dose Range Finding (DRF) rat study
Description: (§1) See the summary of the study design in Supplementary Table 31. Nine-week-old Wistar (Crl:WI (Han)) rats were obtained from Charles River Laboratories (Domaine des Oncins, Saint-Germain-Nuelles, France). […] Animals were examined daily for any altered clinical signs, body weights, and food consumption. Blood samples were taken at different timepoints after the test item administration, and toxicokinetic exposure assessed under the defined experimental conditions and analyzed using Phoenix (version 6.4 and 1.4) (Supplementary Table 32). Measurements included hematology and clinical chemistry measurements. Animals were euthanized and necropsied at the end of the dosing period. At necropsy, major organ systems and tissues were collected and weighed and then examined for gross lesions as well as for microscopic changes.

[2] = 7-day Maximum Tolerated Dose 1 (MTD1) rat study; settings: for Concentration: MTD1 males, 8 h; for Liver weight: MTD1 study, individual animals
Description: as §1

[3] = 7-day PK toxicity rat study; parameters: unit not given here
Description: as §1

C[C@@H](CNC(=O)[C@H](O)C(C)(C)CO)NC(=O)c1cc(F)c(F)cc1F [MMV693183]
Concentration ([1]; DRF females, Day 1 (left block), 10 mg/kg/day, 1 h, 10 mg/kg/day): 1730 ng/mL and 1640 ng/mL and 1600 ng/mL
Concentration ([1]; DRF females, Day 1 (left block), 10 mg/kg/day, 4 h, 10 mg/kg/day): 253 ng/mL and 168 ng/mL and 193 ng/mL
Concentration ([1]; DRF females, Day 1 (left block), 10 mg/kg/day, 8 h, 10 mg/kg/day): 92.6 ng/mL and 87.5 ng/mL and 52.6 ng/mL
Concentration ([1]; DRF females, Day 1 (left block), 10 mg/kg/day, 24 h): < 30 ng/mL
Concentration ([1]; DRF females, Day 1 (left block), 30 mg/kg/day, 1 h, 30 mg/kg/day): 7380 ng/mL and 5250 ng/mL and 5380 ng/mL and 5670 ng/mL and 6850 ng/mL and 9140 ng/mL
Concentration ([1]; DRF females, Day 1 (left block), 30 mg/kg/day, 4 h, 30 mg/kg/day): 652 ng/mL and 542 ng/mL and 741 ng/mL and 585 ng/mL and 787 ng/mL and 720 ng/mL
Concentration ([1]; DRF females, Day 1 (left block), 30 mg/kg/day, 8 h, 30 mg/kg/day): 210 ng/mL and 290 ng/mL and 238 ng/mL and 241 ng/mL and 263 ng/mL and 336 ng/mL
Concentration ([1]; DRF females, Day 1 (left block), 30 mg/kg/day, 24 h): < 30 ng/mL
Concentration ([1]; DRF females, Day 1 (right block, head c13), 10 mg/kg/day, 1 h): 1850 ng/mL and 1660 ng/mL and 1520 ng/mL
Concentration ([1]; DRF females, Day 1 (right block, head c13), 10 mg/kg/day, 4 h): 175 ng/mL and 194 ng/mL and 126 ng/mL
Concentration ([1]; DRF females, Day 1 (right block, head c13), 10 mg/kg/day, 24 h): < 30 ng/mL
Concentration ([1]; DRF females, Day 1 (right block, head c13), 30 mg/kg/day, 1 h): 5450 ng/mL and 5750 ng/mL and 7050 ng/mL and 6530 ng/mL and 5780 ng/mL and 5590 ng/mL
Concentration ([1]; DRF males, Day 1, 10 mg/kg/day, 1 h): 2050 ng/mL and 1820 ng/mL and 2600 ng/mL
Concentration ([1]; DRF males, Day 1, 10 mg/kg/day, 4 h): 294 ng/mL and 192 ng/mL and 232 ng/mL
Concentration ([1]; DRF males, Day 1, 10 mg/kg/day, 8 h): 144 ng/mL and 94.3 ng/mL and 74.5 ng/mL
Concentration ([1]; DRF males, Day 1, 10 mg/kg/day, 24 h): < 30 ng/mL
Concentration ([1]; DRF males, Day 1, 30 mg/kg/day, 1 h): 5740 ng/mL and 6410 ng/mL and 5800 ng/mL and 5930 ng/mL and 5050 ng/mL and 8210 ng/mL
Concentration ([1]; DRF males, Day 1, 30 mg/kg/day, 8 h): 620 ng/mL and 352 ng/mL and 487 ng/mL and 486 ng/mL and 475 ng/mL and 332 ng/mL
Concentration ([1]; DRF males, Day 1, 30 mg/kg/day, 24 h): < 30 ng/mL
Concentration ([1]; DRF males, Day 7, 10 mg/kg/day, 1 h): 1380 ng/mL and 1130 ng/mL and 1750 ng/mL
Concentration ([1]; DRF males, Day 7, 10 mg/kg/day, 8 h): 121 ng/mL and 99.5 ng/mL and 104 ng/mL
Concentration ([1]; DRF males, Day 7, 10 mg/kg/day, 24 h): < 30 ng/mL
Concentration ([1]; DRF males, Day 7, 30 mg/kg/day, 24 h): < 30 ng/mL
Concentration ([2]; Day 1, 60 mg/kg/day): 0.883 µM and 0.532 µM
Concentration ([2]; Day 1, 200 mg/kg/day): 3.68 µM and 6.03 µM
Concentration ([2]; Day 1, 600 mg/kg/day): 29.3 µM and 33.1 µM
Liver weight ([2]; females, 60 mg/kg/day): 4.59 g
Liver weight ([2]; females, 200 mg/kg/day): 6.09 g
Liver weight ([2]; females, 600 mg/kg/day): 8.38 g and 6.99 g
Liver weight ([2]; males, 60 mg/kg/day): 7.34 g
Liver weight ([2]; males, 200 mg/kg/day): 9.96 g
Liver weight ([2]; males, 600 mg/kg/day): 10.46 g
Concentration (PK study) ([3]; Females 60 mg/kg/day, Day 1, 0.5 hr): 28000 and 28300 and 24900
Concentration (PK study) ([3]; Females 60 mg/kg/day, Day 1, 1 hr): 17300 and 14000 and 17800
Concentration (PK study) ([3]; Females 60 mg/kg/day, Day 1, 2 hr): 7150 and 8300 and 5530
Concentration (PK study) ([3]; Females 60 mg/kg/day, Day 1, 4 hr): 869 and 1410 and 1270
Concentration (PK study) ([3]; Females 60 mg/kg/day, Day 3, 0.5 hr): 26900 and 24200 and 25000
Concentration (PK study) ([3]; Females 60 mg/kg/day, Day 3, 1 hr): 14000 and 15300 and 14600
Concentration (PK study) ([3]; Females 60 mg/kg/day, Day 3, 2 hr): 4990 and 4170 and 4890
Concentration (PK study) ([3]; Females 60 mg/kg/day, Day 3, 4 hr): 1990 and 1480 and 1110
Concentration (PK study) ([3]; Females 60 mg/kg/day, Day 4, 0.5 hr): 27000 and 26700 and 22800
Concentration (PK study) ([3]; Females 60 mg/kg/day, Day 4, 1 hr): 14000 and 17700 and 12600
Concentration (PK study) ([3]; Females 60 mg/kg/day, Day 4, 2 hr): 4820 and 4290 and 4650
Concentration (PK study) ([3]; Females 60 mg/kg/day, Day 4, 4 hr): 1730 and 1230 and 1460
Concentration (PK study) ([3]; Females 60 mg/kg/day, Day 5, 0.5 hr): 26600 and 23300 and 21000
Concentration (PK study) ([3]; Females 60 mg/kg/day, Day 5, 1 hr): 12300 and 10200 and 11700
Concentration (PK study) ([3]; Females 60 mg/kg/day, Day 5, 2 hr): 3890 and 5880 and 4840
Concentration (PK study) ([3]; Females 60 mg/kg/day, Day 5, 4 hr): 1590 and 1870 and 1340
Concentration (PK study) ([3]; Females 60 mg/kg/day, Day 6, 0.5 hr): 24800 and 22900 and 20900
Concentration (PK study) ([3]; Females 60 mg/kg/day, Day 6, 1 hr): 10500 and 9660 and 8660
Concentration (PK study) ([3]; Females 60 mg/kg/day, Day 6, 2 hr): 4340 and 4860 and 4040
Concentration (PK study) ([3]; Females 60 mg/kg/day, Day 6, 4 hr): 933 and 1400 and 1550
Concentration (PK study) ([3]; Females 60 mg/kg/day, Day 7, 0.5 hr): 28500 and 26900 and 17200
Concentration (PK study) ([3]; Females 60 mg/kg/day, Day 7, 1 hr): 13200 and 10800 and 14400
Concentration (PK study) ([3]; Females 60 mg/kg/day, Day 7, 2 hr): 5340 and 7540 and 7930
Concentration (PK study) ([3]; Males 60 mg/kg/day, Day 1, 2 hr): 7990 and 6920
Concentration (PK study) ([3]; Males 60 mg/kg/day, Day 1, 24 hr): LLoQ
Concentration (PK study) ([3]; Males 60 mg/kg/day, Day 3, 2 hr): 2390 and 3250 and 3040
Concentration (PK study) ([3]; Males 60 mg/kg/day, Day 3, 8 hr): 510 and 258 and 323
Concentration (PK study) ([3]; Males 60 mg/kg/day, Day 3, 24 hr): LLoQ
Concentration (PK study) ([3]; Males 60 mg/kg/day, Day 4, 2 hr): 2880 and 1910
Concentration (PK study) ([3]; Males 60 mg/kg/day, Day 4, 24 hr): LLoQ
Concentration (PK study) ([3]; Males 60 mg/kg/day, Day 5, 2 hr): 1240 and 869
Concentration (PK study) ([3]; Males 60 mg/kg/day, Day 5, 24 hr): LLoQ
Concentration (PK study) ([3]; Males 60 mg/kg/day, Day 6, 2 hr): 803 and 925
Concentration (PK study) ([3]; Males 60 mg/kg/day, Day 6, 24 hr): LLoQ
Concentration (PK study) ([3]; Males 60 mg/kg/day, Day 7, 2 hr): 990 and 1000
Concentration (PK study) ([3]; Males 60 mg/kg/day, Day 7, 4 hr): 182 and 270 and 217
Concentration (PK study) ([3]; Males 60 mg/kg/day, Day 7, 24 hr): LLoQ
Concentration (PK study) ([3]; Males 200 mg/kg/day, Day 1, 0.5 hr): 51700 and 68600 and 61400
Concentration (PK study) ([3]; Males 200 mg/kg/day, Day 1, 1 hr): 75000 and 77600 and 77200
Concentration (PK study) ([3]; Males 200 mg/kg/day, Day 1, 2 hr): 34000 and 44200 and 32100
Concentration (PK study) ([3]; Males 200 mg/kg/day, Day 3, 0.5 hr): 19000 and 21800 and 18300
Concentration (PK study) ([3]; Males 200 mg/kg/day, Day 3, 1 hr): 9570 and 10800 and 16900
Concentration (PK study) ([3]; Males 200 mg/kg/day, Day 3, 4 hr): 1400 and 1390 and 1750
Concentration (PK study) ([3]; Males 200 mg/kg/day, Day 3, 24 hr): LLoQ
Concentration (PK study) ([3]; Males 200 mg/kg/day, Day 4, 0.5 hr): 10400 and 15700 and 14100
Concentration (PK study) ([3]; Males 200 mg/kg/day, Day 4, 1 hr): 7140 and 5790 and 6860
Concentration (PK study) ([3]; Males 200 mg/kg/day, Day 4, 2 hr): 2930 and 3060 and 2740
Concentration (PK study) ([3]; Males 200 mg/kg/day, Day 4, 4 hr): 1520 and 1900 and 970
Concentration (PK study) ([3]; Males 200 mg/kg/day, Day 4, 8 hr): 354 and 449 and 526
Concentration (PK study) ([3]; Males 200 mg/kg/day, Day 4, 24 hr): LLoQ
Concentration (PK study) ([3]; Males 200 mg/kg/day, Day 5, 0.5 hr): 13400 and 15300
Concentration (PK study) ([3]; Males 200 mg/kg/day, Day 5, 1 hr): 4990 and 7470 and 6880
Concentration (PK study) ([3]; Males 200 mg/kg/day, Day 5, 4 hr): 637 and 1100 and 721
Concentration (PK study) ([3]; Males 200 mg/kg/day, Day 5, 24 hr): LLoQ
Concentration (PK study) ([3]; Males 200 mg/kg/day, Day 6, 0.5 hr): 8010 and 12900 and 11500
Concentration (PK study) ([3]; Males 200 mg/kg/day, Day 6, 4 hr): 843 and 1050 and 1160
Concentration (PK study) ([3]; Males 200 mg/kg/day, Day 6, 24 hr): LLoQ
Concentration (PK study) ([3]; Males 200 mg/kg/day, Day 7, 0.5 hr): 19800 and 20000 and 15100
Concentration (PK study) ([3]; Males 200 mg/kg/day, Day 7, 4 hr): 1230 and 993 and 731
Concentration (PK study) ([3]; Males 200 mg/kg/day, Day 7, 8 hr): 312 and 235 and 430
Concentration (PK study) ([3]; Males 200 mg/kg/day, Day 7, 24 hr): LLoQ

From article PMC9021288 (Nature Communications, 2022)
